Results are given in words; binding and its absence hold for the method and conditions named. In cells and extracts the contact can be indirect. Here binding means that the protein was enriched with, or labelled near, the bait; the list need not be complete. Sequences can lack the tags named with a protein.
Target: T1, FLAG-SET7/9 (UniProt Q8WTS6)
T1 sequence: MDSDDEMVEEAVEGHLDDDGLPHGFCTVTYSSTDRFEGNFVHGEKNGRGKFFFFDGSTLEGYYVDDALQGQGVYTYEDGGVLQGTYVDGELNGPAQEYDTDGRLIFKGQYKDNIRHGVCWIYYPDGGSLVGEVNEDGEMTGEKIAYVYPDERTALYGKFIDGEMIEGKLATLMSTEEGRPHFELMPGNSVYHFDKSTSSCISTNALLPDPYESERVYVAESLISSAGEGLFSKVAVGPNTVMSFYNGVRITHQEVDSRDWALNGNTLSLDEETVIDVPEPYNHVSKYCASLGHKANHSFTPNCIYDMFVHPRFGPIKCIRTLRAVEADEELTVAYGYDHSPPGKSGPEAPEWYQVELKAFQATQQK
Assay: affinity purification with mass spectrometry; extracts of MCF-7 cells stably expressing FLAG-SET7/9 on an anti-FLAG M2 affinity column, eluted with FLAG peptide (0.2 mg/ml), SDS-PAGE, silver staining, bands cut out for LC-MS/MS

The chains behind the UniProt entries cited, without tags or fusion partners.
UniProt P19474: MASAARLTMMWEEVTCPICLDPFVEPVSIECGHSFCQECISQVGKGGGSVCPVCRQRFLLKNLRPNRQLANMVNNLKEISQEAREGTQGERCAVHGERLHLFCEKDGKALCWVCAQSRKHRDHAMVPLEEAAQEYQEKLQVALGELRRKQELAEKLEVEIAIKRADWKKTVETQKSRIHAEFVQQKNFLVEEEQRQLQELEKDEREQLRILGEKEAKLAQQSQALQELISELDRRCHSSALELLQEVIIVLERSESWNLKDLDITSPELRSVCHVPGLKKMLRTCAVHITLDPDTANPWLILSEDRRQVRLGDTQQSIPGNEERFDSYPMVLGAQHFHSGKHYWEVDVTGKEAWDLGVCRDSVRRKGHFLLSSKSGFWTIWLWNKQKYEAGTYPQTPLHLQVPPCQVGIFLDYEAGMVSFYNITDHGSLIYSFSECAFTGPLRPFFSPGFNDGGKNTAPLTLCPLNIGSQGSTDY

binding: binds
Substance: Tripartite motif-containing protein 21 (TRIM21), endogenous (from UniProt P19474 1-475) (enzyme)
